From patent US20240342071A1 (SHENZHEN WINKEY TECHNOLOGY CO., LTD, priority 2021, published 2024) come the findings set out here.

HELM strings list residues between dots; [ac] is acetyl, [am] amide, other brackets name non-standard units.

The nature of the series: general procedure: peptide synthesis; Amide Resin. Particulars: whole synthesis, scale of the general procedure 5 g resin.

PEPTIDE1{[ac].F.F.W.F.K.V.[am]}$$$$V2.0: the “crude purity (method not given)” value was found to be 76% and the “final purity (method not given)” value is on record as 99.027%.
